Structures can show the parent of a compound that is named as a salt. Hit rate of the full screen: of about 2,100 compounds, about 180 (8.6%) showed an effect of 50% or more. Some of the results follow.
System: MOLM1 and UCSD/AML1 (averaged)
Assay: cell viability relative to DMSO control (POC); higher = less growth inhibition
Details: 1 µM; 72 h
Experimental: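 Primary viability screen in the 3q26 EVI1-high AML cell lines MOLM1 and UCSD/AML1 (1.5e3 cells/well, 384-well), compounds at 1 uM for 72 h. ATP CellTiter-Glo read-out given as percent of viable cells over DMSO control (POC), averaged over duplicates. DMSO was the negative control and 5 uM etoposide the positive control. This mapping covers the MicroSource Spectrum and Selleck anticancer libraries (drug names).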

Structure (SMILES) | cell viability [%]
CN[C@@H]1[C@H](O[C@H]2[C@H](O[C@H]3[C@H](O)[C@@H](O)[C@H](N=C(N)N)[C@@H](O)[C@@H]3N=C(N)N)O[C@@H](C)[C@]2(O)C=O)O[C@@H](CO)[C@H](O)[C@H]1O | 99.6
Nc1nc(Cl)nc2c1ncn2[C@H]1C[C@H](O)[C@@H](CO)O1 [Cladribine] | 5.67
COc1ccccc1OCC(O)CO (configuration not stated) | 101
COc1cc(C)c2c(c1C=O)Oc1c(c(C)c(O)c3c1C(O)OC3=O)OC2=O (configuration not stated) | 104
CC[C@]1(O)C[C@H]2CN(CCc3c([nH]c4ccccc34)[C@@](C(=O)OC)(c3cc4c(cc3OC)N(C=O)[C@H]3[C@@](O)(C(=O)OC)[C@H](OC(C)=O)[C@]5(CC)C=CCN6CC[C@]43[C@@H]65)C2)C1 [Vincristine Sulfate] | 7.83
CC[C@]1(O)C[C@H]2CN(CCc3c([nH]c4ccccc34)[C@@](C(=O)OC)(c3cc4c(cc3OC)N(C=O)[C@H]3[C@@](O)(C(=O)OC)[C@H](OC(C)=O)[C@]5(CC)C=CCN6CC[C@]43[C@@H]65)C2)C1 | 11.3
Cc1cc(=O)[nH]c(=S)[nH]1 | 92.9
CN[C@@H](C)C(=O)N[C@H]1CN(C(=O)CC(C)C)CC[C@H]2CC[C@@H](C(=O)NC(c3ccccc3)c3ccccc3)N2C1=O | 68.5
Cc1cccc(C)c1OCC(C)N (configuration not stated) | 93.2
CCN(CC)CCNC(=O)c1c(C)[nH]c(/C=C2\C(=O)Nc3ccc(F)cc32)c1C [Sunitinib Malate (Sutent)] | 32.9
CC(=O)N1CCCC1C(=O)O (configuration not stated) | 108
Oc1ccc(/C=C/c2cc(O)cc(O)c2)cc1 | 98.9
Cc1c(N(C)C)c(=O)n(-c2ccccc2)n1C | 98.6
Oc1c(Cl)cc(Cl)c(Cl)c1Cc1c(O)c(Cl)cc(Cl)c1Cl | 101
CCOc1cc2ncc(C#N)c(Nc3ccc(F)c(Cl)c3)c2cc1NC(=O)/C=C/CN(C)C [Pelitinib (EKB-569)] | 14.4
C=CCc1cccc(/C=N/NC(=O)CN2CCN(Cc3ccccc3)CC2)c1O | 79.4
CC(C(=O)O)c1ccc2c(c1)[nH]c1ccc(Cl)cc12 (configuration not stated) | 106
O=C1c2c(O)cccc2C([C@@H]2O[C@H](CO)[C@@H](O)[C@H](O)[C@H]2O)c2cc(CO)cc(O)c21 (some centres not stated) | 99.7
Nc1nc2[nH]cnc2c(=S)[nH]1 | 99.9
CN(C)C(=O)C(CCN1CCC(O)(c2ccc(Cl)cc2)CC1)(c1ccccc1)c1ccccc1 | 104
O=c1ccc2cc(O)c(O)cc2o1 | 102
C[C@H](CCC(=O)O)[C@H]1CC[C@H]2[C@@H]3[C@H](O)C[C@@H]4C[C@H](O)CC[C@]4(C)[C@H]3C[C@H](O)[C@]12C | 100
CC(C(=O)O)c1ccc(-c2ccccc2)c(F)c1 (configuration not stated) | 98.2
Cc1cc(O)c2c(c1)C(=O)c1cccc(O)c1C2=O [Chrysophanic acid (Chrysophanol)] | 93.8
Cc1cc(O)c2c(c1)C(=O)c1cccc(O)c1C2=O | 115
C[C@H]1O[C@@H](O[C@H]2[C@@H](O)C[C@H](O[C@H]3[C@@H](O)C[C@H](O[C@H]4CC[C@@]5(C)[C@H](CC[C@@H]6[C@@H]5C[C@@H](O)[C@]5(C)[C@@H](C7=CC(=O)OC7)CC[C@]65O)C4)O[C@@H]3C)O[C@@H]2C)C[C@H](O)[C@@H]1O | 3.03

Individual results from the entries so far:
For cell viability [%], O=C1c2c(O)cccc2C([C@@H]2O[C@H](CO)[C@@H](O)[C@H](O)[C@H]2O)c2cc(CO)cc(O)c21 (some centres not stated) shows 99.7
For cell viability [%], Cc1c(N(C)C)c(=O)n(-c2ccccc2)n1C shows 98.6

Following part:

Structure (SMILES) | cell viability [%]
COc1ccc(-c2cc(=O)c3c(O)c(OC)c(O[C@@H]4O[C@H](CO[C@@H]5O[C@@H](C)[C@H](O)[C@@H](O)[C@H]5O)[C@@H](O)[C@H](O)[C@H]4O)cc3o2)cc1 | 101
Cn1c(=O)[nH]c(=O)c2[nH]cnc21 | 110
O=C(C1CCCCC1)N1CC(=O)N2CCc3ccccc3C2C1 (configuration not stated) | 108
C[C@]1(O)C[C@@H](c2nc(-c3ccc4ccc(-c5ccccc5)nc4c3)c3c(N)nccn32)C1 [OSI-906 (Linsitinib)] | 100
OC[C@H]1O[C@H](O[C@]2(CCl)O[C@H](CCl)[C@@H](O)[C@@H]2O)[C@H](O)[C@@H](O)[C@H]1Cl | 83.8
CNC(=O)c1cc(Oc2ccc(NC(=O)Nc3cc(C(C)(C)C)nn3-c3ccc4ncccc4c3)c(F)c2)ccn1 [DCC-2036 (Rebastinib)] | 24.6
O=C(O)[C@@H](O)[C@H](O)[C@H](O)[C@@H](O)C(=O)O | 106
Nc1nc2ccc(OC(F)(F)F)cc2s1 | 95.3
Oc1cc(O)c2c(c1)O[C@H](c1ccc(O)c(O)c1)[C@H](O)C2 | 96.7
COc1ccc2c(c1)c(CC(=O)O)c(C)n2C(=O)c1ccc(Cl)cc1 | 102
CNC(=O)c1cc(Oc2ccc(NC(=O)Nc3ccc(Cl)c(C(F)(F)F)c3)c(F)c2)ccn1 [Regorafenib (BAY 73-4506)] | 28.9
C=C1c2c(Cl)ccc(O)c2C(=O)C2=C(O)[C@]3(O)C(=O)C(C(N)=O)=C(O)[C@@H](N(C)C)[C@@H]3[C@@H](O)[C@H]12.O=C(O)c1cc(S(=O)(=O)O)ccc1O | 95.7
O=C1C=C(O)C(=O)c2ccccc21 | 92.9
CC(=O)NCCCS(=O)(=O)O | 94.3
COc1ccc2c(c1OC)C(=O)O[C@@H]2[C@H]1c2c(cc3c(c2OC)OCO3)CCN1C | 96.7
O=C(CCc1ccc(O)cc1)c1c(O)cc(O)cc1O [Phloretin (Dihydronaringenin)] | 96.9
O=C(CCc1ccc(O)cc1)c1c(O)cc(O)cc1O | 105
CC(=O)NS(=O)(=O)c1ccc(NC(=O)c2ccccc2C(=O)O)cc1 | 93.1
COc1ccc(OC)c(C(O)CNC(=O)CN)c1 (configuration not stated) | 104
CN1CCN(CCCN2c3ccccc3Sc3ccc(C(F)(F)F)cc32)CC1 | 94.4
CNC[C@H](O)c1ccc(O)c(O)c1 | 94.8
CN(C(=O)C(Cl)Cl)c1ccc(OC(=O)c2ccco2)cc1 | 98.5
CCc1cc(Nc2nccc(-c3c(-c4ccc(OC)c(C(=O)Nc5c(F)cccc5F)c4)nc4ccccn34)n2)c(OC)cc1N1CCC(N2CCN(S(C)(=O)=O)CC2)CC1 | 50.2
CC(=O)c1ccc2c(c1)N(CCCN(C)C)c1ccccc1S2 | 99.2
CN(C)CCOC(C)(c1ccccc1)c1ccccn1 (configuration not stated) | 105
COc1cc2nccc(Oc3ccc(NC(=O)Nc4cc(C)on4)c(Cl)c3)c2cc1OC [Tivozanib (AV-951)] | 31.8

— the supplement of paper PMC11150407
